Counter-ions that a name gives are not always drawn. Some of the results follow. Repeats in this data set agree poorly, so a single value says little.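 Human kidney-derived cells stably carry a construct in which eight TEAD-binding elements drive luciferase, measured by luminescence in a drug-repurposing library screen. A hit is any compound whose signal exceeds the plate mean by more than five robust Z scores.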
Tested on: HEK293A TEAD-LUC reporter
Assay: TEAD-luciferase reporter activity (YAP activation), robust Z score vs plate; higher = stronger YAP/TEAD activation
Conditions: 24 h

| SMILES | TEAD-luciferase reporter activity (compound concentration: 200 nM) | TEAD-luciferase reporter activity (compound concentration: 2 uM) | TEAD-luciferase reporter activity (compound concentration: 10 uM) |
| --- | --- | --- | --- |
| COc1cccc2c1OC(CNCCN1C(=O)CC3(CCCC3)CC1=O)CO2 (configuration not stated) | inactive: 0.995 | inactive: -0.955 | inactive: 0.472 |
| CN1CCCN=C1/C=C/c1cccs1 | inactive: -0.335 | – | inactive: 2.28 |
| CN1CCCN=C1/C=C/c1cccs1 [Pyrantel pamoate] | – | inactive: -2.17 | – |
| COc1ccc(C(=O)N2CC3(Cc4ccccc4N(C(C)=O)C3)C2)cc1 | inactive: 0.599 | – | inactive: 4.41 |
| CC1C(N)CN1c1c(F)cc2c(=O)c(C(=O)O)cn(C3CC3)c2c1Cl (configuration not stated) | inactive: 0.699 | inactive: -1.09 | inactive: 0.356 |
| Cc1cc(-c2ccn3c(-c4ccc(CC(=O)Nc5cccc(C(F)(F)F)c5)c(F)c4)cnc3c2)ccn1 | inactive: -0.386 | inactive: -2.82 | inactive: 0.319 |
| COc1ccc(C(=O)Nc2ccc(S(=O)(=O)NC(CC#CCN3CCOCC3)C(=O)O)cc2)cc1 (configuration not stated) | inactive: -1.48 | inactive: -0.376 | inactive: 2.83 |
| COc1cc([S+](C)[O-])ccc1-c1nc2cnccc2[nH]1 (configuration not stated) [Isomazole hydrochloride] | inactive: -0.6 | inactive: 0.879 | inactive: 0.181 |
| CNCCC1=Cc2ccccc2N(C)c2ccccc21 | inactive: -0.0409 | inactive: -0.963 | inactive: -0.0817 |
| OC[C@H]1OC(O)C[C@@H](O)[C@@H]1O (some centres not stated) [2-Deoxyglucose] | inactive: 1.3 | inactive: -1.76 | inactive: -0.129 |
| Cc1c2cc[n+](C)cc2c(C)c2c1[nH]c1ccc(O)cc12 [Elliptinium acetate] | inactive: -2.03 | inactive: 0.345 | inactive: -1.01 |
| COc1cc(Nc2nc3ccccc3nc2NS(=O)(=O)c2ccc(NC(=O)c3ccc(C)c(OC)c3)cc2)cc(OC)c1 | – | inactive: 1.07 | – |
| CNC(=O)[C@H](Cc1c[nH]c2ccccc12)NC(=O)[C@@H](CC(=O)NO)CC(C)C | inactive: -1.54 | – | inactive: 3.76 |
| CNC(=O)[C@H](Cc1c[nH]c2ccccc12)NC(=O)[C@@H](CC(=O)NO)CC(C)C [Ilomastat] | – | inactive: -0.753 | – |
| CC(=O)SCCC(=O)N1[C@@H](C)CCC[C@H]1C(=O)O [Metiapril] | inactive: -2.31 | inactive: -0.873 | inactive: -1.4 |
| C1=CCC2(CC1)COC(c1ccco1)OC2 (configuration not stated) [Ulinastatin] | inactive: -1.01 | inactive: 0.656 | inactive: -1.23 |
| CN1[C@@H]2CCC[C@H]1C[C@@H](NC(=O)c1nn(C)c3ccccc13)C2 [Granisetron??Hydrochloride] | inactive: -2.11 | – | – |
| CN1[C@@H]2CCC[C@H]1C[C@@H](NC(=O)c1nn(C)c3ccccc13)C2 [Granisetron hydrochloride] | – | inactive: -2.07 | – |
| C[C@@H](NC(=O)[C@H]1C[C@]1(C)c1ccc(C(F)(F)F)cc1)c1cc(F)c(NS(C)(=O)=O)c(F)c1 | inactive: 0.25 | inactive: -0.439 | inactive: -0.134 |
| O=c1cc[nH]c(=O)[nH]1 | inactive: -1.17 | – | inactive: -0.222 |

| SMILES | TEAD-luciferase reporter activity (compound concentration: 200 nM) | TEAD-luciferase reporter activity (compound concentration: 2 uM) | TEAD-luciferase reporter activity (compound concentration: 10 uM) |
| --- | --- | --- | --- |
| O=c1cc[nH]c(=O)[nH]1 [Uracil] | – | inactive: -1.28 | – |
| CC(C)CCN1CCC2(C1)C(=O)N(c1ccccc1)c1ccccc12 (configuration not stated) | inactive: -3.27 | – | inactive: -0.686 |
| O=C(Nc1ccccc1)OCC(CN1CCCCC1)OC(=O)Nc1ccccc1 (configuration not stated) | inactive: -1.9 | inactive: 2.61 | inactive: 0.846 |
| Clc1ccc(CCC(Cn2ccnc2)Sc2c(Cl)cccc2Cl)cc1 (configuration not stated) [butoconazole] | inactive: 1.14 | inactive: -0.983 | inactive: 0.57 |
| C=C(c1c(Cl)ccc(Cl)c1OCC(O)CNC(C)C)n1ccnc1 (configuration not stated) | inactive: 0.0974 | inactive: 2.01 | inactive: 0.247 |
| NNc1nnc(NN)c2ccccc12 | inactive: -2.26 | inactive: -3.27 | inactive: -1.78 |
| CCCCn1c(=O)c(NC(=O)Nc2c(C(C)C)cc(N)cc2C(C)C)c(-c2cccc(OCCCO)c2)c2cccnc21 | inactive: 0.0881 | inactive: -1.13 | – |
| CCCCCCCCCCCCCCCC(=O)OCC(COC(=O)CCCCCCCCCCCCCCC)(COC(=O)CCCCCCCCCCCCCCC)NC(=O)CNC(=O)CC[C@H](NC(=O)c1ccc(N(C)Cc2cnc3nc(N)nc(N)c3n2)cc1)C(=O)O [MTX-gamma-GTP-3] | inactive: -1.56 | inactive: -0.571 | inactive: 0.0218 |
| NC1=NC(=O)N([C@@H]2O[C@H](CO)[C@@H](O)[C@H]2O)CN1 | inactive: 0.132 | inactive: 0.575 | inactive: -1.77 |
| CCCCCCC(=O)OCC(COC(=O)CCCCCC)OC(=O)CCCCCC [triheptanoin, Ultragenyx] | inactive: -1.85 | inactive: 4.36 | inactive: 0.54 |
| O=C(NOCC1CC1)c1ccc(F)c(F)c1Nc1ccc(I)cc1Cl | inactive: -1.47 | inactive: 0.267 | inactive: 0.322 |
| CCN(CCCCOC(=O)c1ccc(OC)c(OC)c1)C(C)Cc1ccc(OC)cc1 (configuration not stated) | inactive: 0.0359 | – | inactive: 0.336 |
| CCN(CCCCOC(=O)c1ccc(OC)c(OC)c1)C(C)Cc1ccc(OC)cc1 (configuration not stated) [mebeverine] | – | inactive: 2.26 | – |
| O=C(O)[C@H]1O[C@@H](O[C@H]2[C@H](O)[C@H](O)[C@H](O[C@H]3[C@H](O)[C@H](O)[C@H](O)O[C@H]3C(=O)O)O[C@H]2C(=O)O)[C@@H](O)[C@@H](O)[C@@H]1O | inactive: 0.62 | – | inactive: 1.26 |
| O=C(/C=C/c1ccccc1)NCCO [idrocilamide] | inactive: -0.0639 | inactive: -1.1 | inactive: -0.728 |
| CC1(C)CCC2(CC1)N[C@@H](C(=O)N[C@@H]1CC[C@@H](C(N)=O)OC1)[C@H](c1ccnc(Cl)c1F)[C@]21C(=O)Nc2cc(Cl)ccc21 [Milademetan tosylate] | inactive: -2.33 | – | inactive: 1.11 |
| Cc1cc2cc3c(C)cc(=O)oc3c(C)c2o1 | inactive: -0.576 | inactive: -1.76 | inactive: -1.09 |
| O=c1oc(CCN2CCN(c3ccccc3)CC2)c(-c2ccc(F)cc2)o1 [fludoxopone] | inactive: -0.0872 | inactive: 1.04 | inactive: 1.63 |
| CC1=CC(C)(C)Nc2ccc3c(c21)C(c1cccc(Cl)c1)Oc1ccc(F)cc1-3 (configuration not stated) | inactive: -1.29 | inactive: 0.878 | inactive: -0.582 |
| O=S(=O)(O)CCS(=O)(=O)O [Clomethiazole edisilate] | inactive: -0.137 | inactive: -1.88 | inactive: 0.322 |

| SMILES | TEAD-luciferase reporter activity (compound concentration: 200 nM) | TEAD-luciferase reporter activity (compound concentration: 2 uM) | TEAD-luciferase reporter activity (compound concentration: 10 uM) |
| --- | --- | --- | --- |
| CCOC(=O)CNC(=O)[C@@H]1CCCN1C(=O)Cc1ccccc1 | inactive: -1.58 | inactive: 0.181 | inactive: -0.538 |
| Cn1ncc2c1Nc1cc(Cl)ccc1N(C(=O)c1ccc(CNC(=O)C3CC3)c(F)c1)C2 | inactive: -0.408 | inactive: -0.337 | inactive: -0.188 |
| CC(C)CCCC(C)Cc1ccc(C(C)CC(=O)NCCO)cc1 (configuration not stated) | inactive: 0.125 | inactive: 1.17 | inactive: -0.738 |
| O=S(=O)(O)c1cc(I)c(O)c2ncccc12 | inactive: 0.658 | inactive: 1.12 | active: 5.98 |
| CCN(CC)CCO/N=C(/c1ccco1)c1ccc(OC)c(Cl)c1Cl [Diclofurime] | inactive: -0.581 | inactive: 1.09 | inactive: -0.977 |
| C[C@H]1C[C@@](O)(c2csc(Sc3ccc4c(c3)CC(=O)N4C)c2)CCO1 | inactive: 3.76 | inactive: -0.529 | inactive: 0.516 |
| CCCCCCCC/C=C\CCCCCCCC(=O)OCC(COC(=O)CCCCCCC/C=C\CCCCCCCC)OC(=O)CCCCCCC/C=C\CCCCCCCC | inactive: 1.2 | inactive: 0.697 | inactive: 1.69 |
| COc1ccc(CCNCCC[C@](C#N)(c2ccc(OC)c(OC)c2)C(C)C)cc1OC [Arverapamil] | inactive: -0.231 | inactive: 0.411 | inactive: 0.837 |
| CN1CCN(C(=O)[C@]2(C)CO[C@@H](c3nc(-c4ccnc(NCC5CC5)n4)c(-c4ccc(F)cc4)[nH]3)OC2)CC1 | inactive: -0.0873 | inactive: -1.57 | inactive: -2.2 |
| O=C(O)[C@H]1CN(C/C=C/P(=O)(O)O)CCN1 [Midafotel] | inactive: -0.132 | – | inactive: 3.32 |
| O=C(O)/C=C/c1ccc(-c2ccc(O)c(C34CC5CC(CC(C5)C3)C4)c2)cc1 [Adarotene] | inactive: -0.737 | inactive: -2.61 | inactive: -1.66 |
| Cc1cc(C(=O)NCCc2ccc(S(=O)(=O)NC(=O)NC3CCCCC3)cc2)no1 | inactive: -0.886 | inactive: -1.15 | inactive: -0.889 |
| O=C(NCc1ccc2c(c1)OCO2)C1Cc2c(sc3ccccc23)CN1 (configuration not stated) | inactive: 0.128 | inactive: -0.368 | inactive: -1.07 |
| O=C(Nc1ccc2c(c1)CCN(Cc1ncc[nH]1)C2)c1ccccc1-c1ccc(C(F)(F)F)cc1 | inactive: -1.22 | inactive: -0.53 | inactive: 0.886 |
| CC(=O)NS(=O)(=O)c1ccc(N)cc1 | – | inactive: 0.438 | – |
| CC(=O)NS(=O)(=O)c1ccc(N)cc1 [Sulfacetamide144-80-9] | inactive: 0.248 | – | inactive: -1.19 |
| Cc1csc(Cl)c1Nc1nc2ccccc2[nH]1 | inactive: -0.573 | inactive: -1.47 | inactive: -1.51 |
| Cc1nc(O)c(N)cc1-c1ccccc1 | inactive: -0.474 | inactive: -0.144 | inactive: 1.59 |

— the supplement of paper PMC10735217
